From the supplement of paper PMC12823440, “Inhibitors supercharge kinase turnover through native proteolytic circuits” (Nature, 2025)
Structures can show the parent of a compound that is named as a salt. The list shows a part of the results. Hit calls seldom repeat between salt and free forms of one compound.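 In K562 cells expressing nanoluciferase-fused kinases, luminescence was recorded at 4 h intervals between 2 and 18 h, normalized as percent of control with DMSO at 100% and a positive control at 0%. A significant (2 sigma) signal drop marks a time point as decreased. The authors' rule for a hit is not shown and takes in more than the number of time points.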

Chains of the proteins cited; added tags and fusions are not shown. Lines headed by an entry give the natural chain unless they say otherwise; changes in a name come on top.
UniProt Q05397, whole entry, looked up: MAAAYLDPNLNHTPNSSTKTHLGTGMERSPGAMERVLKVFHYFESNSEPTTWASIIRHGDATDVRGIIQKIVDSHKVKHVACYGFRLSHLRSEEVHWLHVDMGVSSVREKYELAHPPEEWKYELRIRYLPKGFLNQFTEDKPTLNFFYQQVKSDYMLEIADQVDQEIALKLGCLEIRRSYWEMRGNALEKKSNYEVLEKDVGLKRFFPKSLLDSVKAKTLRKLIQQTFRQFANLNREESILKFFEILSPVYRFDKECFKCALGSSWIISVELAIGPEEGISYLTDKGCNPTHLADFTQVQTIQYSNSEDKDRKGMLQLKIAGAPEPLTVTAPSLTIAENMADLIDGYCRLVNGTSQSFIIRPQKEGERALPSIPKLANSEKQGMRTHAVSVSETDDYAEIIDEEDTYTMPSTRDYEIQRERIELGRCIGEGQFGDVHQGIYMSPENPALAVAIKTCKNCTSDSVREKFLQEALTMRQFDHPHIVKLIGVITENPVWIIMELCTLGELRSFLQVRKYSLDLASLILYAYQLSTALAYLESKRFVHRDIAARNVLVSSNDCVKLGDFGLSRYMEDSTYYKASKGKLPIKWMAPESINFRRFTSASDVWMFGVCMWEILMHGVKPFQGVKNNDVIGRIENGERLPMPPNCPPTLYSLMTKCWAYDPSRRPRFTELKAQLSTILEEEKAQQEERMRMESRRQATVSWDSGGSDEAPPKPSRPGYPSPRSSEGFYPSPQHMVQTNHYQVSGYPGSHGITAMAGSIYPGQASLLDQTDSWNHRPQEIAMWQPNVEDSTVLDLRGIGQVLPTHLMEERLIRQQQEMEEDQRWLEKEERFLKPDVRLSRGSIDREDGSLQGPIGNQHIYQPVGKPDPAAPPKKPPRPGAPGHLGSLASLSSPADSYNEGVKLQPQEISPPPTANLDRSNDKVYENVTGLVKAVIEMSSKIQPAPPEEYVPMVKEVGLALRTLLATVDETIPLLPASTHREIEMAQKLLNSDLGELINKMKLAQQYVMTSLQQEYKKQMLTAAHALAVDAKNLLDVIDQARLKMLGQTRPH
UniProt Q14289, whole entry, looked up: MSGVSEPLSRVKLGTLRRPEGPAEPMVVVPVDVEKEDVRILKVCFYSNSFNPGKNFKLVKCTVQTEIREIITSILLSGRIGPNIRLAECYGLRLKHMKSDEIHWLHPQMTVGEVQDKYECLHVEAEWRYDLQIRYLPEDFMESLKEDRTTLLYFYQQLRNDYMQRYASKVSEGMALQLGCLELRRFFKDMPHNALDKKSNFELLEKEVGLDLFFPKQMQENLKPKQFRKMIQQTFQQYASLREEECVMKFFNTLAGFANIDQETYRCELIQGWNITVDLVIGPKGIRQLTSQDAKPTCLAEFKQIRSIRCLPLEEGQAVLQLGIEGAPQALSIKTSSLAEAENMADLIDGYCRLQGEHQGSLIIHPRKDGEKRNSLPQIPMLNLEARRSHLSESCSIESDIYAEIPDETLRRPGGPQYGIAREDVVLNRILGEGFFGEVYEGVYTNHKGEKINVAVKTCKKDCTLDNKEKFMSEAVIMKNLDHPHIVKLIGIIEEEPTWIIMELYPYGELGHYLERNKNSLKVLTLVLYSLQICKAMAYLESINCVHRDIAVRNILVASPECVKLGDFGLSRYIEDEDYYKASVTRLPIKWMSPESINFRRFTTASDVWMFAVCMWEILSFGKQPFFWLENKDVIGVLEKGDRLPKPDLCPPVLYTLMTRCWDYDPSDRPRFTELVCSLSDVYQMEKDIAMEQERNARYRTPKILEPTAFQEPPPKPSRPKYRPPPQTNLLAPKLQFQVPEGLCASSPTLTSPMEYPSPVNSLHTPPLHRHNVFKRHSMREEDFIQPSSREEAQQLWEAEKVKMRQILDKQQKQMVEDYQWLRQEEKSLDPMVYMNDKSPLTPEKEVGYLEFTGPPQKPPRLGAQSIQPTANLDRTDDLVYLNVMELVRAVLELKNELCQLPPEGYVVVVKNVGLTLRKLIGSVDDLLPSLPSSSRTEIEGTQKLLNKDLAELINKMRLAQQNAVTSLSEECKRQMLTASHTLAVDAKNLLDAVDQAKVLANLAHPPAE
UniProt P07949, whole entry, looked up: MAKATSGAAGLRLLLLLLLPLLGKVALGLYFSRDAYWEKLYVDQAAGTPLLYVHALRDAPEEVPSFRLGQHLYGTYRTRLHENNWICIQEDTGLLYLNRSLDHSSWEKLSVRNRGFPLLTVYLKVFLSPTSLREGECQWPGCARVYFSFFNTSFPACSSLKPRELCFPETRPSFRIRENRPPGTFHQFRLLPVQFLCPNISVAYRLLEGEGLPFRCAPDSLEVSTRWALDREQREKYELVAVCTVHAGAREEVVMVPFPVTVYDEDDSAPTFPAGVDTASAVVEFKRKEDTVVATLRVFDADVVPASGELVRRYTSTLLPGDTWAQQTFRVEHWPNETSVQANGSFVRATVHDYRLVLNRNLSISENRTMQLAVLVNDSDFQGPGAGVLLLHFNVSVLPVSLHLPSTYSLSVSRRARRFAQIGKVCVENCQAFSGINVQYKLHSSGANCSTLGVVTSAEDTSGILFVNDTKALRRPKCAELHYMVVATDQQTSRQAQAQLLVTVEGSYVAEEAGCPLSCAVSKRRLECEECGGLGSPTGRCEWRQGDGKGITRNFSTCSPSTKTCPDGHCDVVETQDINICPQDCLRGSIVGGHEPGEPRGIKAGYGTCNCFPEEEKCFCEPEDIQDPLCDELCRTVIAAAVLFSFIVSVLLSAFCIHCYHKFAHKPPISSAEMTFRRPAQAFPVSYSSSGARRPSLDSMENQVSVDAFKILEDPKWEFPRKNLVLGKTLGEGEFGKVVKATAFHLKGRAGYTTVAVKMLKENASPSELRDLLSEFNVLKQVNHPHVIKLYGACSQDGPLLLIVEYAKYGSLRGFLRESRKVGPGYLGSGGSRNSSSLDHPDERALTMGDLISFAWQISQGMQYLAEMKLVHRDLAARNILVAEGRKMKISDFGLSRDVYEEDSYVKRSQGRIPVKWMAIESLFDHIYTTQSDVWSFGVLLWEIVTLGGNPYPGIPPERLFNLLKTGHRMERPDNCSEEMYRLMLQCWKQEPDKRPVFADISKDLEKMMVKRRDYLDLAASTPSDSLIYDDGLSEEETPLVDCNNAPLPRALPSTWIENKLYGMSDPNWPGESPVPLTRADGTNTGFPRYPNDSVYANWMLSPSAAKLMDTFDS
UniProt P07949, whole entry M918T, looked up: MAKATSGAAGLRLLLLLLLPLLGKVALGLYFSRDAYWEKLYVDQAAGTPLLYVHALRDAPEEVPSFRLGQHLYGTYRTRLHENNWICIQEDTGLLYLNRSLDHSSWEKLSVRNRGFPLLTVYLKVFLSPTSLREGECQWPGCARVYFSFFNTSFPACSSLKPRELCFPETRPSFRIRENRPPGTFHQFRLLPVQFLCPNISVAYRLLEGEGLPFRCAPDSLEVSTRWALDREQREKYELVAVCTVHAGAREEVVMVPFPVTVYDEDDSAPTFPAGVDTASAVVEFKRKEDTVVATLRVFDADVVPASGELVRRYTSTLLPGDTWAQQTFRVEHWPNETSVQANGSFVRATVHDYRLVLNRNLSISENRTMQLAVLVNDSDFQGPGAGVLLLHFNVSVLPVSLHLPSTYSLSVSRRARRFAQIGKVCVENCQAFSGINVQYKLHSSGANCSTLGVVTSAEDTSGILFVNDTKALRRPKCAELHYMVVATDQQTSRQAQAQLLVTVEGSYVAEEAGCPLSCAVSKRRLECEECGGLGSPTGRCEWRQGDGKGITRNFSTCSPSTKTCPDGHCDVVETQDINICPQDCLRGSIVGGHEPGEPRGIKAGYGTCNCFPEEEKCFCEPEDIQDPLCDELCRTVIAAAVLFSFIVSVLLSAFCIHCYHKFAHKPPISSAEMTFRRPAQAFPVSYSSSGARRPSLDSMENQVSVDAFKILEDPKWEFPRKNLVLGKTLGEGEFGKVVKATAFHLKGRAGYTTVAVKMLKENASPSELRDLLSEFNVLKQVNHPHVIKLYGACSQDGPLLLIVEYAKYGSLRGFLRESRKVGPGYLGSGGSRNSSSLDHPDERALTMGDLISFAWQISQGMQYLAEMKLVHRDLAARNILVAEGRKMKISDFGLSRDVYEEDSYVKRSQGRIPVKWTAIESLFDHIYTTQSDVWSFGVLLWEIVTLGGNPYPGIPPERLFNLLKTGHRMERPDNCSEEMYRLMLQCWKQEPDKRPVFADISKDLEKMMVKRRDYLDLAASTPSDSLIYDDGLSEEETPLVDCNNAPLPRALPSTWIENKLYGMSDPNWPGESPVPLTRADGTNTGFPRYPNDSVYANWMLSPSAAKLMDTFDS
UniProt Q9BRS2: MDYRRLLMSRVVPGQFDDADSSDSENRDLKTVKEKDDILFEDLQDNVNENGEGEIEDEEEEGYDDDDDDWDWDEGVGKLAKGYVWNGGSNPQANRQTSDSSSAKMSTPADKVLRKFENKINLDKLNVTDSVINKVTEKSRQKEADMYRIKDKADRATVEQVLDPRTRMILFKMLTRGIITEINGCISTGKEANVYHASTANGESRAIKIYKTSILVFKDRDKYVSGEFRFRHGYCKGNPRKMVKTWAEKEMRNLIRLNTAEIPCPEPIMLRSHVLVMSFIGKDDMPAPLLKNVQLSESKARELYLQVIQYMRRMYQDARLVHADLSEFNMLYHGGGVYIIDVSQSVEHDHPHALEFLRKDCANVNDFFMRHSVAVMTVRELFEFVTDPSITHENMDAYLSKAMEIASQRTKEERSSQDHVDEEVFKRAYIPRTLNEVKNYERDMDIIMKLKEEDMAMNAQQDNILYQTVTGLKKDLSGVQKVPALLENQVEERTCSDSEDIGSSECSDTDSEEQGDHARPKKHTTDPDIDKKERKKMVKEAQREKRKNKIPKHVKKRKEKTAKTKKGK
UniProt Q13546: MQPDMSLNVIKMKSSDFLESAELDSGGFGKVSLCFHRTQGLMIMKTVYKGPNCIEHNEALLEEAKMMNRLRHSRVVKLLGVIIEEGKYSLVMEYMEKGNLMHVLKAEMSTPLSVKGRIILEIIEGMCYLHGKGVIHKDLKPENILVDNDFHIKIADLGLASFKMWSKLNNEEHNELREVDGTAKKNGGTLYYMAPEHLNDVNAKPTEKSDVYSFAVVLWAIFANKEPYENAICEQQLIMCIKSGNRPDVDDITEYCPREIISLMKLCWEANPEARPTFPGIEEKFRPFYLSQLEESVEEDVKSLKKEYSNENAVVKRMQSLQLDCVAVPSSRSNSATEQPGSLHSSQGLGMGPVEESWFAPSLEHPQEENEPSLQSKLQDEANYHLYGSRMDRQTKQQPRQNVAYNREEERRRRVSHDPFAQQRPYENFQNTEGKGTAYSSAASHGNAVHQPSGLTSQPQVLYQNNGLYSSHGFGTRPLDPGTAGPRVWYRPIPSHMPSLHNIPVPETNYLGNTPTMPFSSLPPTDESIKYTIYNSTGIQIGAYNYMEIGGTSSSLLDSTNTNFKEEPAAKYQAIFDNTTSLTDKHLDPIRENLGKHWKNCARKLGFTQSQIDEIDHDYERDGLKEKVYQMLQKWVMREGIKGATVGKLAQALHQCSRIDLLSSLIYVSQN

How the values were obtained:
Experiment in all cases: number of time points (of 5) at which kinase-Nluc abundance scored as decreased, DMSO-normalised (count); higher = more persistent destabilization
Conditions in all cases: K562; 2-18 h
PRKCA = PRKCA (UniProt P17252)
PTK2 = PTK2 (UniProt Q05397)
PTK2B = PTK2B (UniProt Q14289)
RAF1 = RAF1 (UniProt P04049)
[1] = molecular target: RAF1_S257L (clone: RAF1_mut) (UniProt P04049)
RET = RET (UniProt P07949)
[2] = molecular target: RET_M918T (clone: RET_mut) (UniProt P07949)
RIOK1 = RIOK1 (UniProt Q9BRS2)
RIPK1 = RIPK1 (UniProt Q13546)
RIPK2 = RIPK2 (UniProt O43353)

Measured: number of time points

C[C@@H](c1ccc(-c2ccccc2)c(F)c1)c1cc(NC(=N)N2CCOCC2)on1 [Rimacalib] (10 µM)
0: all assays above

CCc1cc2c(cc1N1CCC(N3CCOCC3)CC1)C(C)(C)c1[nH]c3cc(C#N)ccc3c1C2=O [Alectinib] (10 µM)
0: all assays above

CN1CCN(c2cccc(Nc3nc4c(-c5ccc(S(C)(=O)=O)cc5)cccn4n3)c2)CC1 (10 µM)
0: all assays above

NC(=O)c1nnc(N[C@@H]2CCCC[C@@H]2N)nc1Nc1cccc2cc[nH]c12 (10 µM)
1: PTK2
3: [1]
0: all other assays above

2 consecutive entries out of the list so far:
CCc1cc2c(cc1N1CCC(N3CCOCC3)CC1)C(C)(C)c1[nH]c3cc(C#N)ccc3c1C2=O [Alectinib] (10 µM)
0: all assays above

CN1CCN(c2cccc(Nc3nc4c(-c5ccc(S(C)(=O)=O)cc5)cccn4n3)c2)CC1 (10 µM)
0: all assays above

Additional records

N#CCC1CCN(c2nc(Nc3ccc(N4CCC(O)CC4)cc3)c3c(=O)[nH]ncc3n2)CC1 [Gusacitinib] (10 µM)
2: PTK2 | RAF1
0: all other assays above

c1cc(-c2c[nH]c3nccc(N4CCC[C@@]5(CCCCN5)C4)c23)ncn1 (10 µM)
1: PTK2B
0: all other assays above

CCOc1ccc2cc(-c3nn(CC4CCN(C)CC4)c4ncnc(N)c34)ccc2n1 (10 µM)
0: all assays above

Oc1ccc(Nc2nc(-c3ccc(Cl)cc3)cs2)cc1 (10 µM)
0: all assays above

COc1ccccc1-c1cc(Nc2cccc(CS(N)(=O)=O)c2)ncn1 (10 µM)
2: PTK2 | [1] | RIPK1
0: all other assays above

O=C(Nc1cn[nH]c1-c1ccccn1)c1nn(C2CCNCC2)cc1Cl (10 µM)
1: PTK2
0: all other assays above

COc1cc(Nc2ncc(F)c(Nc3ccc4c(n3)N(COP(=O)(O)O)C(=O)C(C)(C)O4)n2)cc(OC)c1OC [Fostamatinib Disodium] (10 µM)
0: all assays above

FC(F)(F)c1ccc(CNc2ccc(Cc3c[nH]c4ncccc34)cn2)cc1 (10 µM)
0: all assays above

CS(=O)(=O)Nc1cc(-c2ccc3ncnc(Nc4ccc(F)c(Cl)c4)c3c2)cnc1Cl (2.5 µM)
3: RAF1
1: PTK2
0: all other assays above

CCc1c(C(=O)NNC(=O)C(O)c2cc(F)cc(F)c2)ccc(O)c1C (stereo not given) (10 µM)
0: all assays above

CC[C@@H](Oc1nc(Oc2cc(C)cc(-c3cccc(CN)c3)c2)c(F)cc1F)C(=O)O (10 µM)
0: all assays above

Cn1nccc1Nc1nccc(-c2ccn([C@H](CO)c3ccc(Cl)c(F)c3)c(=O)c2)n1 [Ravoxertinib hydrochloride] (10 µM)
0: all assays above

O=c1cc(CN2CCOCC2)occ1OCCCCCSc1ccnc2cc(C(F)(F)F)ccc12 (10 µM)
0: all assays above

CC1CCc2c(cc(Br)c(F)c2Br)N1C=O (stereo not given) (10 µM)
0: all assays above

Cn1cnc2c(F)c(Nc3ccc(Br)cc3Cl)c(C(=O)NOCCO)cc21 [Selumetinib] (10 µM)
0: all assays above

CCN1CCC(n2cc(CNc3cc(Cl)c4ncc(C#N)c(Nc5ccc(F)c(Cl)c5)c4c3)nn2)CC1 [Cot inhibitor-2] (2.5 µM)
0: all assays above

C[C@@H]1CC[C@@H](Nc2nc(NC(C)(C)C)ncc2C(N)=O)C[C@H]1O (10 µM)
0: all assays above

Cc1ccc(C(=O)Nc2ccc(Oc3cc4cnn(C)c4cc3-c3cn[nH]c3)c(F)c2)c(=O)n1-c1ccc(F)cc1 [Merestinib dihydrochloride] (2.5 µM)
0: all assays above

CCC(C)N1c2ccccc2C(=O)N(C)c2cnc(Nc3ccc(C(=O)N4CCC(N5CCN(C)CC5)CC4)cc3OC)nc21 (stereo not given) (2.5 µM)
0: all assays above

CC(C)(C)c1cc(O)ccc1O (10 µM)
0: all assays above

Cc1ccc(CNc2ncnc3ccc(-c4ccc(CO)o4)cc23)o1 (10 µM)
0: all assays above

CC#CC(=O)N1CC[C@@H](n2c(=O)n(-c3ccc(Oc4ccccc4)cc3)c3c(N)ncnc32)C1 [Tirabrutinib (hydrochloride)] (10 µM)
0: all assays above

O=C(NCCN1CCCC1)c1cc(-c2ccc(CN3CCOCC3)cc2)nc2ccc(F)cc12 (10 µM)
0: all assays above

c1ccc(-c2[nH]ncc2-c2ccnc3ccccc23)nc1 (10 µM)
0: all assays above

S=C(SSC(=S)N1CCOCC1)N1CCOCC1 (10 µM)
2: [1]
3: RAF1 | RIPK1
1: PTK2
4: RIPK2
0: all other assays above

CCCS(=O)(=O)Nc1ccc(F)c(C(=O)c2c[nH]c3ncc(-c4ccc(Cl)cc4)cc23)c1F [Vemurafenib] (10 µM)
1: PTK2 | RAF1 | RET | [2]
0: all other assays above

C=CC(=O)Nc1cccc(Nc2nc(Nc3ccc(N4CCN(C(C)=O)CC4)cc3OC)ncc2C(F)(F)F)c1 [Rociletinib] (10 µM)
2: PTK2 | [1] | RIPK1
3: RAF1 | RIOK1
0: all other assays above

CCN1CCN(Cc2ccc(-c3cc4c(N[C@H](C)c5ccccc5)ncnc4[nH]3)cc2)CC1 (2.5 µM)
3: RIOK1 | RIPK1
4: [1]
1: RIPK2
0: PRKCA | PTK2B | [2]
2: all other assays above

COc1cccc(OC)c1C(=O)OCc1cc(O)ccc1O[C@@H]1O[C@H](CO)[C@@H](O)[C@H](O)[C@H]1O [Curculigoside] (10 µM)
0: all assays above

CCN1CCN(Cc2ccc(Nc3ncc(F)c(-c4cc(F)c5nc(C)n(C(C)C)c5c4)n3)nc2)CC1 [Abemaciclib (methanesulfonate)] (10 µM)
1: [2]
2: PTK2 | [1]
3: RIPK1
0: all other assays above

O=S(=O)(NCCCN1c2ccccc2CCc2ccc(Cl)cc21)c1ccc(OC(F)(F)F)cc1 (2.5 µM)
0: all assays above

FC(F)(c1ccc2ncccc2c1)c1nnc2ccc(-c3ccncc3)nn12 (10 µM)
0: all assays above
